This passage reports odorant receptor activation results from the odorant receptor screen of Mainland et al. (2015).

Values joined by “and” are separate entries in the source; they are usually repeats but may differ in a detail not shown here. Equal values may be shown once. This is one part of the list. Each value is one well over the wells without odorant, computed here; the data are noisy.

Some test systems named below: OR7C2 clone 1292; OR7D2 clone 1405; OR7D4 clone 1298; OR7E24 P242S clone 1314; OR7G1 clone 1295; OR7G2 clone 1475; OR7G3 clone 1297; OR8A1 clone 1503; OR8B12 clone 1731; OR8B4 E22G clone 1227; OR8B8 clone 1226; OR8B8 clone 1504; OR8D1 clone 1142; OR8D2 clone 1179; OR8G1 clone 1395; OR8G5 clone 1323.
Holding throughout (assay): odorant receptor activation (CRE luciferase / Renilla) (fold of no-odor wells); higher = more activation
Common to all, as to settings: 100 µM

Experiment [1] deals with OR7G2 V263A/F281V clone 1312.
Experiment [2] has as its system OR8B3 H20R/Q24R/V34I/M114I clone 1727.
Experiment [3] concerns OR8B4 Y131H/C140F/C178R clone 1440.
The test system of experiment [4] is OR8D4 C120Y/R133K/F200L/L283P/R298K clone 1072.

For the compound `CC1CCC(C(C)C)C(O)C1` (single isomer, unassigned; (-)) [(-)-menthol], the odorant receptor activation with OR7C2 clone 1292 came out at 0.735; with OR7D2 clone 1405, 0.673; in the experiment on OR7D4 clone 1298, 0.717; in the experiment with OR7E24 P242S clone 1314, 0.535; in the experiment on OR7G1 clone 1295 it was 0.764; in experiment [1], 0.808. The odorant receptor activation stood at 2.97 with OR7G2 clone 1475; 0.512 with OR7G3 clone 1297; 3.36 in the experiment on OR8A1 clone 1503; 0.985 in the experiment on OR8B12 clone 1731; 0.114 in experiment [2]; 0.983 in the experiment on OR8B4 E22G clone 1227. Also, the odorant receptor activation in experiment [3] was determined as 0.677; with OR8B8 clone 1226 it was 0.99; in the experiment with OR8B8 clone 1504, 3.34; in the experiment on OR8D1 clone 1142, 0.808; with OR8D2 clone 1179, 0.941; in experiment [4], 2.36. Further, the figures for the odorant receptor activation in the experiment with OR8G1 clone 1395 and in the experiment on OR8G5 clone 1323 were 1.26 and 0.693, respectively.
With `COC(=O)c1ccccc1` [methyl benzoate], the odorant receptor activation in the experiment on OR7C2 clone 1292 was found to be 0.874; with OR7D2 clone 1405, 0.98; in the experiment with OR7D4 clone 1298, 0.832; in the experiment with OR7E24 P242S clone 1314 it was 0.888; in the experiment on OR7G1 clone 1295 it was 0.833; in [1], 0.56. Also, the odorant receptor activation was 1.01 and 0.717 with OR7G2 clone 1475; 1.32 in the experiment with OR7G3 clone 1297; 0.829 and 1.07 in the experiment on OR8A1 clone 1503; 0.871 in the experiment with OR8B4 E22G clone 1227; 0.81 in experiment [3]; 0.625 with OR8B8 clone 1226. Besides, the odorant receptor activation in the experiment with OR8B8 clone 1504 was 0.572 and 1.2; in the experiment on OR8D1 clone 1142, 1.01; in the experiment on OR8D2 clone 1179, 0.94; in [4] it was 2.19; in the experiment with OR8G1 clone 1395 it was 1.02; in the experiment with OR8G5 clone 1323, 1.09.
`CC(C)C(=O)O` [isobutyric acid]: the odorant receptor activation was 0.914 and 0.988 in the experiment on OR7C2 clone 1292; 0.791 in the experiment with OR7D2 clone 1405; 0.884 and 0.945 in the experiment with OR7D4 clone 1298; 0.875 and 0.95 in the experiment on OR7E24 P242S clone 1314; 0.973 and 0.961 in the experiment on OR7G1 clone 1295; 1.21 and 0.727 in [1]. The odorant receptor activation with OR7G2 clone 1475 is 1.22 and 1.03; in the experiment on OR7G3 clone 1297 it was 0.902 and 0.813; in the experiment on OR8A1 clone 1503, 1.01 and 0.891; with OR8B12 clone 1731, 1.16; in [2], 0.969; with OR8B4 E22G clone 1227, 1.05. In addition, the odorant receptor activation in experiment [3] was 0.685; in the experiment on OR8B8 clone 1226 it was 0.741; in the experiment on OR8B8 clone 1504, 0.923 and 0.883; in the experiment on OR8D1 clone 1142, 1.21; with OR8D2 clone 1179, 1.09; in experiment [4] it was 1.09. The odorant receptor activation in the experiment with OR8G1 clone 1395 was 0.763; with OR8G5 clone 1323, 0.793 and 0.873.
Consider `CCCCCCCCCCC=O` [undecanal], for which the odorant receptor activation is 0.919 with OR7C2 clone 1292; 0.955 in the experiment with OR7D2 clone 1405; 0.887 in the experiment on OR7D4 clone 1298; 1.01 in the experiment on OR7E24 P242S clone 1314; 0.946 with OR7G1 clone 1295; 0.903 in experiment [1]. In addition, the odorant receptor activation in the experiment on OR7G2 clone 1475 is 0.915; in the experiment on OR7G3 clone 1297 it was 0.867; in the experiment with OR8A1 clone 1503 it was 1.13; in the experiment with OR8B12 clone 1731, 1.03; in experiment [2], 0.156; with OR8B4 E22G clone 1227 it was 1.02. Further, the odorant receptor activation was 0.983 in experiment [3]; 0.691 in the experiment with OR8B8 clone 1226; 1.13 in the experiment on OR8B8 clone 1504; 0.926 with OR8D1 clone 1142; 0.921 with OR8D2 clone 1179; 1.19 in [4]. Moreover, the odorant receptor activation in the experiment with OR8G1 clone 1395 came out at 1.17; in the experiment with OR8G5 clone 1323 it was 0.857.
For `O=C1CCCCC1` [Cyclohexanone], the odorant receptor activation in the experiment on OR7C2 clone 1292 worked out at 0.764; in the experiment on OR7D2 clone 1405, 1.01; with OR7D4 clone 1298, 0.841; with OR7E24 P242S clone 1314 it was 0.668; with OR7G1 clone 1295, 0.584; in experiment [1], 0.351. Also, the odorant receptor activation in the experiment with OR7G2 clone 1475 was 1.16 and 0.649; with OR7G3 clone 1297, 0.56; in the experiment on OR8A1 clone 1503 it was 1 and 0.931; in the experiment on OR8B4 E22G clone 1227 it was 0.641; in [3], 0.667; with OR8B8 clone 1226 it was 0.641. In addition, the odorant receptor activation with OR8B8 clone 1504 is 0.427 and 1.19; with OR8D1 clone 1142, 1.04; with OR8D2 clone 1179, 0.671; in experiment [4], 1.21; with OR8G1 clone 1395 it was 0.946; with OR8G5 clone 1323, 0.638.
`CCCCCC(C)=O` [2-heptanone]: the odorant receptor activation is 1.58 in the experiment on OR7C2 clone 1292; 1.01 with OR7D2 clone 1405; 3.7 in the experiment with OR7D4 clone 1298; 1.09 in the experiment with OR7E24 P242S clone 1314; 0.549 in the experiment with OR7G1 clone 1295; 0.755 in experiment [1]. Moreover, the odorant receptor activation was 3.05 in the experiment on OR7G3 clone 1297; 0.766 and 0.639 in the experiment with OR8A1 clone 1503; 0.826 in the experiment with OR8B4 E22G clone 1227; 0.924 in experiment [3]; 1.11 in the experiment on OR8B8 clone 1226; 1.04 in the experiment with OR8B8 clone 1504. Besides, the odorant receptor activation was found to be 1.36 with OR8D1 clone 1142; 0.986 with OR8D2 clone 1179; 0.909 in [4]; 0.856 in the experiment with OR8G1 clone 1395; 2.37 in the experiment with OR8G5 clone 1323.
Take `CC(C)CCC(=O)O` [4-methylvaleric acid]: the odorant receptor activation worked out at 1.45 in the experiment with OR7C2 clone 1292; 0.699 in the experiment with OR7D2 clone 1405; 0.825 with OR7D4 clone 1298; 1.44 with OR7E24 P242S clone 1314; 1.14 in the experiment on OR7G1 clone 1295; 1.1 in experiment [1]. In addition, the odorant receptor activation in the experiment with OR7G2 clone 1475 was 0.766; with OR7G3 clone 1297, 0.746; in the experiment with OR8A1 clone 1503 it was 0.828; with OR8B12 clone 1731, 0.8; in experiment [2] it was 0.739; in the experiment on OR8B4 E22G clone 1227 it was 1.6. For the same compound, the odorant receptor activation in experiment [3] turned out to be 0.737; with OR8B8 clone 1226, 1.05; in the experiment with OR8B8 clone 1504 it was 1.01; with OR8D1 clone 1142, 0.981; in the experiment on OR8D2 clone 1179, 0.754; in experiment [4], 1.4. In addition, the odorant receptor activation with OR8G1 clone 1395 turned out to be 1.18; in the experiment with OR8G5 clone 1323 it was 1.04.
